In PMC11252128:

Assays:
[1] = target: T1, OsERS2-Myc (rice (Oryza sativa L.)) (UniProt Q0DKM0); experiment: co-IP; stable transgenic rice seedlings (receptor-Myc in WT or mhz3 background), 2 days in the dark, with or without 1 h of 10 μL/L ethylene; total proteins immunoprecipitated with anti-c-Myc affinity gel; blots anti-c-Myc, anti-OsCTR2, anti-MHZ3
T1 sequence: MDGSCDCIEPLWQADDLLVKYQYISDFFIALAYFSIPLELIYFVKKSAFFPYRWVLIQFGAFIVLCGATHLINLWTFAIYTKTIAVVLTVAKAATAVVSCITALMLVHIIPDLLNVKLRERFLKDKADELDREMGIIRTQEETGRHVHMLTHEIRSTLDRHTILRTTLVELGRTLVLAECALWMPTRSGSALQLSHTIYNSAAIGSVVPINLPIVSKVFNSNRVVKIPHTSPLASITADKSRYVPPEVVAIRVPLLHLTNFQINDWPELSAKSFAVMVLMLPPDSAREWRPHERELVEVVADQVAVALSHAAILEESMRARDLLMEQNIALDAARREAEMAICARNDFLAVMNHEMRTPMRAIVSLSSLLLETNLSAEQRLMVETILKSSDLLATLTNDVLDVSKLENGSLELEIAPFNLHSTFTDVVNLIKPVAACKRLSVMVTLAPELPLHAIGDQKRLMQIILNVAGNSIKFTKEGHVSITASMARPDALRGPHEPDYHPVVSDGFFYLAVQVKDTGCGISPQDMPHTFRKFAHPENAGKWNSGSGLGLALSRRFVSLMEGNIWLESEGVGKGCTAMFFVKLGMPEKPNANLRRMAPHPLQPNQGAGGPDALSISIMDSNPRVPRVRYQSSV

[2] = target: T2, OsETR2-Myc (rice (Oryza sativa L.)) (UniProt Q7XX84); experiment: as above
T2 sequence: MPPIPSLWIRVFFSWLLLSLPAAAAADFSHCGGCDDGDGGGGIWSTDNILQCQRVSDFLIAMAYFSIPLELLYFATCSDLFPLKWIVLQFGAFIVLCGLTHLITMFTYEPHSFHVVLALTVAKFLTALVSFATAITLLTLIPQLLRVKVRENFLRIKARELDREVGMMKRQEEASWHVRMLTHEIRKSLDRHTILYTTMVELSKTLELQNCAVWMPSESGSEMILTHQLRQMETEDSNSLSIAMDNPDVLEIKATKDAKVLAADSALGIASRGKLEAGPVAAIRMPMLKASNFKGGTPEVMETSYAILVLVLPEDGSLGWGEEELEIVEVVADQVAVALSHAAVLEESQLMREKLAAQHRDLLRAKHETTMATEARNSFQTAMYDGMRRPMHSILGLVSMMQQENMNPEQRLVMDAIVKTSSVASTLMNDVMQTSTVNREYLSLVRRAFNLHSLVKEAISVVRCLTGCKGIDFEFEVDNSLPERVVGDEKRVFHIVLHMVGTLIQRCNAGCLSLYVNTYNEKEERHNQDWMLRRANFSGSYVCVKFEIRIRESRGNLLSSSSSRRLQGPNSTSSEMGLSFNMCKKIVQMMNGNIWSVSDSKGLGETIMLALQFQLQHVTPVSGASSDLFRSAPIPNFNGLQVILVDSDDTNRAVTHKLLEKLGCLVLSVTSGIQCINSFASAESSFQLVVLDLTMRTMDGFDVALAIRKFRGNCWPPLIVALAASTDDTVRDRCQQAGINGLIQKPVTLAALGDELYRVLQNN

[3] = target: T3, OsEIN2-GFP (rice (Oryza sativa L.)) (UniProt Q0D8I9); experiment: co-IP; stable transgenic rice seedlings expressing OsEIN2-GFP, 2 days in the dark, air or 1 h of 10 μL/L ethylene; the methods name anti-c-Myc affinity gel or GFP-Trap_A beads for stable plants
T3 sequence: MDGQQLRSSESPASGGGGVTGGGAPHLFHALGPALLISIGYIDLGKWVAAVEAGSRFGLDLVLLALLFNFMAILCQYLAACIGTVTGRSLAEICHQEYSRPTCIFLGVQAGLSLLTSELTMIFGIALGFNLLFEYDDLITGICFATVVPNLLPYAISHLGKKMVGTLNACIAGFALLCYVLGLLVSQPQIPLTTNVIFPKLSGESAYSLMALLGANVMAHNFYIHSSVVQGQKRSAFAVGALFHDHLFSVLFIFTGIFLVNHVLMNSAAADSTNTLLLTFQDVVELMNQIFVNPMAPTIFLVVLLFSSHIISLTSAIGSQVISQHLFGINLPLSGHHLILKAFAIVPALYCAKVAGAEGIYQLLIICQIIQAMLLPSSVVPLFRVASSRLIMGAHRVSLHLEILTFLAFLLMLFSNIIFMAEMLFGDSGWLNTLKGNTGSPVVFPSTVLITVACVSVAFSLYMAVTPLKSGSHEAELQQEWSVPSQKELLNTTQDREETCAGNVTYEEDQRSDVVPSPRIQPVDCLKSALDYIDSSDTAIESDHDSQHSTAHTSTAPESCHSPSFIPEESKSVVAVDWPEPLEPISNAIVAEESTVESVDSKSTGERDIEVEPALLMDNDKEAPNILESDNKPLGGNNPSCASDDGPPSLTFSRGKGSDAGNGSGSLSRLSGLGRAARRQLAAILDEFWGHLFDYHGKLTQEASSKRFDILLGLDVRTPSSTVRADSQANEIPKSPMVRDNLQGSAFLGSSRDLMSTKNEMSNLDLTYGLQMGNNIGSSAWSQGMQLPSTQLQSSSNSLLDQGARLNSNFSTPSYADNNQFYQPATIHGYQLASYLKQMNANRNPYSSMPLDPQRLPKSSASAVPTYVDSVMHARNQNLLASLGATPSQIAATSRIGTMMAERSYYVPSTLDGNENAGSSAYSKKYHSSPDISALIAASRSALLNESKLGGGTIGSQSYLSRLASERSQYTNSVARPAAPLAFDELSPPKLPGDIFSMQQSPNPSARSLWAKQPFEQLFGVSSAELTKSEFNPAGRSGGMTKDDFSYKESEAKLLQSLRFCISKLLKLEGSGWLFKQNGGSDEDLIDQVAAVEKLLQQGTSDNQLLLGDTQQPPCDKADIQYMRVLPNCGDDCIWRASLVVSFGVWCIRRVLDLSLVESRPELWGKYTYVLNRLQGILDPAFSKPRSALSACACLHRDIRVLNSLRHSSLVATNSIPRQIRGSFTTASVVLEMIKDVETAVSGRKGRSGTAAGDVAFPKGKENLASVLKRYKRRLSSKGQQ

[4] = target: T1, OsERS2-Myc (rice (Oryza sativa L.)); experiment: pull-down; semi-in vitro pull-down: receptor-Myc immunoprecipitated with anti-c-Myc affinity gel from receptor-Myc/mhz3 plants, equal amounts added to homogenates of WT, mhz3 and MHZ3-OE#22 seedlings, 1 h at 4 °C; blot anti-OsCTR2; only the target purified
[5] = target: T2, OsETR2-Myc (rice (Oryza sativa L.)); experiment: as above

Row | binding [1] | binding [2] | binding [3] | binding [4] | binding [5] | Substance
1 | binds | binds | binds | – | – | MHZ3 (rice (endogenous in rice seedlings))
2 | binds | binds | – | binds | binds | OsCTR2 (rice (endogenous in rice seedlings)) (enzyme)

Results are given in words; binding and its absence hold for the method and conditions named. In cells and extracts the contact can be indirect. Binding can be weak; no strength is given. Where a sequence is shown, tags or fusion partners need not be part of it.
